Reference: US20090142349A1
Results are given in words; binding and its absence hold for the method and conditions named. Some results given as binding are weak or reduced against the parent protein; the word gives no strength.

Molecular target: cynomolgus monkey CD19 on blood B-cells (cynomolgus monkey)
Assay: FACS staining of cynomolgus monkey blood

binding: binds
B1: human monoclonal antibody 21D4 (antibody, V domains shown)
VH: EVQLVQSGAEVKKPGESLKISCKGSGYSFSSSWIGWVRQMPGKGLEWMGIIYPDDSDTRYSPSFQGQVTISADKSIRTAYLQWSSLKASDTAMYYCARHVTMIWGVIIDFWGQGTLVTVSS
VL: AIQLTQSPSSLSASVGDRVTITCRASQGISSALAWYQQKPGKAPKLLIYDASSLESGVPSRFSGSGSGTDFTLTISSLQPEDFATYYCQQFNSYPYTFGQGTKLEIK
